This is an account of results in PMC7862700.

By UniProt entry, the sequences of proteins in these tests, tags left out. Where a name states a change or a piece, a line headed by the entry shows the natural chain unless it says otherwise.
UniProt P32519: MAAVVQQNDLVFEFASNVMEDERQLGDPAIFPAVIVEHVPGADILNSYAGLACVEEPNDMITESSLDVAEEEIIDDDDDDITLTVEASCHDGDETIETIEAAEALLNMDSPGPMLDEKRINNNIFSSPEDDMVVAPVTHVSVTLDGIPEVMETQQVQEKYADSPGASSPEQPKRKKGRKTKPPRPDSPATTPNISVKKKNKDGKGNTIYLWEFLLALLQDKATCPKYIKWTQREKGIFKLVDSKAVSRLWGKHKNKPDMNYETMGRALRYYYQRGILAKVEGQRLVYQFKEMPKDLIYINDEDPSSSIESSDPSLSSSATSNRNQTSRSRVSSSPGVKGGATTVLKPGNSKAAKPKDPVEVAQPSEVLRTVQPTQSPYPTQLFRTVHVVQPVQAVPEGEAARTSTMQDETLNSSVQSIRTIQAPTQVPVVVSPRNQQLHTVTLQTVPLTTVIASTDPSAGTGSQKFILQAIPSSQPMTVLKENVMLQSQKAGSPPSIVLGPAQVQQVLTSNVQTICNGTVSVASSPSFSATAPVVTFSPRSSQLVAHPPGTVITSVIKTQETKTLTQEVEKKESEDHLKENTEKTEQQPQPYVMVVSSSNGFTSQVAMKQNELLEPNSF
UniProt P50549: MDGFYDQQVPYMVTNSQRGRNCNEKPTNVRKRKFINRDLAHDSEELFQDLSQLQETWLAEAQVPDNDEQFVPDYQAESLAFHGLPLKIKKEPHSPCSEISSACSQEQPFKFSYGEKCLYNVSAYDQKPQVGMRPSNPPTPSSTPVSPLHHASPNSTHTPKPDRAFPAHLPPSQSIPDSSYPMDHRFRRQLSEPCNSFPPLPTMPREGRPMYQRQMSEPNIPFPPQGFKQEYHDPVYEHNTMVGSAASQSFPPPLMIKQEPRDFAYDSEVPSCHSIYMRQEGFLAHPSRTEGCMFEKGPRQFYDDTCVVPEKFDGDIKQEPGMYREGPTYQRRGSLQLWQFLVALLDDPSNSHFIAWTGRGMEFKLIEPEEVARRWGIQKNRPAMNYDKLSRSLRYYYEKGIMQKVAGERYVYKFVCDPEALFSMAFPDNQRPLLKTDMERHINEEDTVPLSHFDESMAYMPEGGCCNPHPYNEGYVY

This is a selection; strong and weak results do not stand in their true shares. For some assays here: At the low end of the ranking, values are background and their order means little. The list shows a part of the results. For some assays here: Construct or isoform of the protein are uncertain.

The first assay concerns the target T1, ERG (UniProt P11308).
T1 sequence: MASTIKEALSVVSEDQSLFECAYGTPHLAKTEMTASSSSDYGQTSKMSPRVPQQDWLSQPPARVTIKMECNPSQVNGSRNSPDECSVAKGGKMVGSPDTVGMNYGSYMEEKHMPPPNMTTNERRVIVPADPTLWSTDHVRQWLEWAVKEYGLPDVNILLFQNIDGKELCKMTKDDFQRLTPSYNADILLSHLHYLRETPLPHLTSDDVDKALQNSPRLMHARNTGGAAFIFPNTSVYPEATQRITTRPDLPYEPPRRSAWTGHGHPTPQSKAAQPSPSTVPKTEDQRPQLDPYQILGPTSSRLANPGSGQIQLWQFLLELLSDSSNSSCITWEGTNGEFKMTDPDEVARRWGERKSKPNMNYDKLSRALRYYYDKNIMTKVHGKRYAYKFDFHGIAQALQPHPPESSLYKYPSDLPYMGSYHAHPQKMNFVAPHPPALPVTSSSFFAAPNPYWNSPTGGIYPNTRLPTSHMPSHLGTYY
The assay is described as follows: DAPPL (digital affinity profiling via proximity ligation, sequencing). The note with it: 10 mM Tris-HCl pH 7.5, 50 mM NaCl, 1 mM DTT, 4% glycerol, room temperature, 30 min; GST-TFs on glutathione beads, 16-mer random dsDNA library, 0.1% …; high values mean tight binding; double strand, one strand shown; scale: fold enrichment (6-mer frequency, TF over GST control).
In the case of TCGATG, the binding signal amounted to 1.06.

For the sequence ATCCTC, the binding signal was found to be 1.52.

Take ATGCGT: the binding signal came to 0.989.

A further assay addresses ELF1 (UniProt P32519). The description is as above. Particulars: 10 mM Tris-HCl pH 7.5, 50 mM NaCl, 1 mM DTT, 4% glycerol, room temperature, 30 min; GST-TFs on glutathione beads, 16-mer random dsDNA library, 0.1% …; high values mean tight binding; double strand, one strand shown; scale: fold enrichment (6-mer frequency, TF over GST control).
For TCGATG, the binding signal came out at 1.11.

Turning to ATCCTC, the binding signal worked out at 1.48.

In turn, ATGCGT had a binding signal of 0.969.

Another assay concerns the target T2, ETV4 (UniProt P43268).
T2 sequence: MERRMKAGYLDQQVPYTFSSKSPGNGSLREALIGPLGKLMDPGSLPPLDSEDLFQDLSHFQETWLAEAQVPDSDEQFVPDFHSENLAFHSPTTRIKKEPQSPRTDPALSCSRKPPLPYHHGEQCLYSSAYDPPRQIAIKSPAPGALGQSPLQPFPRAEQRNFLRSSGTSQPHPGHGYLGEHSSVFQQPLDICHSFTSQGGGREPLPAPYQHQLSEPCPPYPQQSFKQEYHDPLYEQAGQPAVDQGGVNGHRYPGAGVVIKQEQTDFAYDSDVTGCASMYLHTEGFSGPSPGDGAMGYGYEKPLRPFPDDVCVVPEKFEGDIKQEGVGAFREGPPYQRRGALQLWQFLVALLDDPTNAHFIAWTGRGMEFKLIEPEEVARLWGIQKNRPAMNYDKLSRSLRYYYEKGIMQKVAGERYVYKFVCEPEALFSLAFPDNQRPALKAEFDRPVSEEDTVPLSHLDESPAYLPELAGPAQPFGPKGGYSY
The assay is described as above. The note with it: 10 mM Tris-HCl pH 7.5, 50 mM NaCl, 1 mM DTT, 4% glycerol, room temperature, 30 min; GST-TFs on glutathione beads, 16-mer random dsDNA library, 0.1% …; high values mean tight binding; double strand, one strand shown; scale: fold enrichment (6-mer frequency, TF over GST control).
The sequence TCGATG came in with a binding signal of 1.1.

As for GCTCCC, the binding signal is 1.47.

Turning to TTGGGG, the binding signal was found to be 1.25.

As for TTTGTG, the binding signal was 1.12.

Regarding CTAGCC, the binding signal is 1.01.

AACCTA displayed a binding signal of 1.14.

CCGACT yielded a binding signal of 1.52.

As for AATTTT, the binding signal amounted to 1.27.

Sequence CACTGT had a binding signal of 1.21.

For AATCCA, the binding signal worked out at 1.06.

GGTCTA gave a binding signal of 1.22.

Sequence AAAATA gave a binding signal of 1.14.

The sequence ATCCTC returned a binding signal of 1.46.

In turn, CATGGT had a binding signal of 1.21.

In turn, ACCATC displayed a binding signal of 1.1.

Sequence GCTGGC registered a binding signal of 1.07.

In turn, CGATAG gave a binding signal of 1.11.

The sequence ATGCCA registered a binding signal of 1.03.

As to AGCAAC, the binding signal was determined as 1.02.

Consider TAGCAT, for which the binding signal was determined as 1.07.

CTTCTT registered a binding signal of 1.5.

GGCCCT had a binding signal of 1.01.

For ATGCGT, the binding signal stood at 1.04.

For CATAAC, the binding signal was 1.19.

As to TCCCAG, the binding signal is 1.09.

In the case of CGCCGC, the binding signal is 1.15.

On to CCAAAT, for which the binding signal is 1.09.

Turning to ATCGCT, the binding signal turned out to be 0.983.

AAAGTA showed a binding signal of 1.12.

Sequence TTACGG came in with a binding signal of 1.17.

With TAACCA, the binding signal was 1.13.

Regarding TTTGAC, the binding signal was determined as 1.43.

TTTTTT returned a binding signal of 1.11.

AACTCT returned a binding signal of 1.45.

Turning to TCCCGT, the binding signal stood at 1.34.

TTCGCT came in with a binding signal of 1.26.

In turn, CGTTAT registered a binding signal of 1.18.

In turn, GCTATG gave a binding signal of 1.26.

In turn, TTACTA registered a binding signal of 1.3.

On to GTTCGA, for which the binding signal came to 1.12.

The next assay deals with ETV1 (UniProt P50549). The description is as above. The note with it: 10 mM Tris-HCl pH 7.5, 50 mM NaCl, 1 mM DTT, 4% glycerol, room temperature, 30 min; GST-TFs on glutathione beads, 16-mer random dsDNA library, 0.1% …; high values mean tight binding; double strand, one strand shown; scale: fold enrichment (6-mer frequency, TF over GST control).
Take GCTCCC: the binding signal stood at 1.24.

In the case of TTGGGG, the binding signal was found to be 1.38.

In turn, TTTGTG returned a binding signal of 1.1.

With CTAGCC, the binding signal came out at 0.961.

AACCTA: the binding signal stood at 1.1.

For CCGACT, the binding signal was determined as 1.6.

On to AATTTT, for which the binding signal was determined as 1.23.

CACTGT displayed a binding signal of 1.11.

Regarding AATCCA, the binding signal was found to be 1.12.

GGTCTA returned a binding signal of 1.05.

On to AAAATA, for which the binding signal was 1.1.

On to CATGGT, for which the binding signal turned out to be 1.29.

With ACCATC, the binding signal worked out at 1.03.

The sequence GCTGGC came in with a binding signal of 0.976.

In turn, CGATAG yielded a binding signal of 1.16.

As for ATGCCA, the binding signal came to 1.02.

AGCAAC registered a binding signal of 0.99.

Take TAGCAT: the binding signal came to 1.17.

In turn, CTTCTT yielded a binding signal of 1.48.

Sequence GGCCCT gave a binding signal of 0.973.

Consider CATAAC, for which the binding signal amounted to 1.1.

Consider TCCCAG, for which the binding signal turned out to be 0.982.

For CGCCGC, the binding signal amounted to 1.29.

For CCAAAT, the binding signal is 0.992.

For ATCGCT, the binding signal turned out to be 1.08.

With AAAGTA, the binding signal was 1.18.

Turning to TTACGG, the binding signal turned out to be 1.25.

On to TAACCA, for which the binding signal is 1.02.

Take TTTGAC: the binding signal was 1.42.

The sequence TTTTTT came in with a binding signal of 1.36.

The sequence AACTCT had a binding signal of 1.36.

TCCCGT yielded a binding signal of 1.3.

Turning to TTCGCT, the binding signal came to 1.27.

CGTTAT yielded a binding signal of 0.987.

On to GCTATG, for which the binding signal turned out to be 1.17.

In turn, TTACTA gave a binding signal of 1.23.

In the case of GTTCGA, the binding signal was 1.08.
